In PubChem BioAssay AID2685 (National Center for Advancing Translational Sciences (NCATS), 2010):
Hit rate of the full screen: of about 320,000 compounds, about 2,100 (0.66%) were called active. Inconclusive results, whose numbers are uncertain, are shown with a selection of clear calls. Calls follow the shape of the dose curve; as a rule, active = well fitted inhibition curve with a large enough effect in the signal ratio, with a control signal flat (not every such curve was filed as active); inconclusive = small, poorly fitted or top-dose-only effect, or effect the other way, or a change in a side signal; inactive = flat fitted curve, though single readings scatter; the % refers to the signal ratio. Where the call is inconclusive, the potency comes from a doubtful curve fit.

Assay: qHTS Assay for Lipid Storage Modulators in Drosophila S3 Cells
Conditions: BODIPY lipid droplet fluorescence, 18-24 h, cells fed with added oleic acid; lipid storage change, negative = inhibition: at 46.1 µM (top of the series) unless noted
Procedure, shortened: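 Drosophila S3 cells loaded with oleic acid (400 uM, as added) and compounds at several concentrations; lipid droplets imaged by 488-nm laser-scanning cytometry, 500–530 nm intensity and object ratio to cell channel. Percent activity normalized to 20 uM Triacsin C.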
% is scaled to controls: 0 for no effect and ±100 for the full control effect; potency is read from the fitted curve at half-maximal effect.

| Structure (SMILES) | lipid storage change, negative = inhibition | outcome | Potency |
| --- | --- | --- | --- |
| O=C(NC1CCCCCC1)c1nnc(Cc2ccc(Cl)cc2)o1 | inconclusive: 16.2% | – | – |
| COc1ccc(C2C(C(=O)NCc3ccccn3)c3ccccc3C(=O)N2C)cc1OC (stereo not given) | – | inactive [at 46.1 µM] | – |
| CC1=C(C(=O)N2CCCCC2)C2(CCC(C)CC2)OC1=O (stereo not given) | inconclusive: 6.82% | – | – |
| O=S(=O)(N1CCOCC1)N1CCN(c2ccc(F)cc2)CC1 | inconclusive: -0.666% | – | – |
| COc1cccc(NC(=O)CSc2nccn2-c2cccc(OC)c2)c1 | inconclusive: -38.9% [at 0.0737 µM] | – | – |
| NC(=O)c1nc(N2CCOCC2)nc(N2CCOCC2)n1 | – | – | inconclusive: 0.517 µM [activator, single point] |
| Cc1[nH]c2ccccc2c1SCc1ccccc1 | inconclusive: 13.8% | – | – |
| CCOC(=O)c1ccc(CNC(=O)Cn2nnc(-c3ccccc3F)n2)o1 | inconclusive: 7.42% | – | – |
| Cc1c(NS(=O)(=O)c2ccc(NCC3CCCO3)c([N+](=O)[O-])c2)c(=O)n(-c2ccccc2)n1C (stereo not given) | inconclusive: 16.7% | – | – |
| Cc1cccc(OCCCN2C(=O)C(=O)c3cc(C)ccc32)c1 | – | – | inconclusive: 6.51 µM [falling, full curve, poor fit] |
| O=C(CCOc1ccccc1)Nc1ccc([N+](=O)[O-])cc1 | inconclusive: 5.97% | – | – |
| O=C(Oc1ccc(-c2nnco2)cc1)c1ccc(F)c(S(=O)(=O)N2CCOCC2)c1 | inconclusive: 28.1% | – | – |
| CCOC(=O)C1CCN(C(=O)c2oc3ccc4c(c3c2C)C(O)CC2(CCCCC2)O4)CC1 (stereo not given) | inconclusive: -48.8% | – | – |
| COc1cc(NC(=O)CCS(=O)(=O)c2nc(-c3cccs3)cc(C(F)(F)F)n2)cc(OC)c1OC | – | – | inconclusive: 20.6 µM [cytotoxic, single point] |
| COc1cc(/C=C2/SC(=S)N(Cc3ccccc3)C2=O)ccc1OCC(=O)O | – | – | inconclusive: 2.31 µM [rising, partial curve] |
| CC(C)CCN(C)C1CCN(C(=O)Nc2c(F)cccc2F)CC1 | inconclusive: 13.6% | – | – |
| COc1ccc(N=C2C(=Nc3ccc(OC)cc3)N(c3ccc(OC)cc3)C(=S)N2C)cc1 | – | – | inconclusive: 4.61 µM [cytotoxic, full curve] |
| Cn1c(SCC(=O)Nc2ccccc2F)nnc1-c1cccnc1 | inconclusive: 30.3% | – | – |
| COc1ccc(CNC(=O)c2c(F)c(F)c(F)c(F)c2F)cc1 | – | – | inconclusive: 29.1 µM [falling, single point] |
| CCOC(=O)NC(CC(=O)O)c1ccc(OC)c(OC)c1 (stereo not given) | inconclusive: 10.5% | – | – |
| CCCn1c(=S)[nH]c2ccccc2c1=O | inconclusive: 128% | – | – |
| Cc1ccc(S(=O)(=O)N2CCN(C(=O)c3cccs3)CC2)cc1 | inconclusive: -16.6% | – | – |
| CCCCCOc1ccc(C(=O)N(Cc2ccco2)C2CCS(=O)(=O)C2)cc1 (stereo not given) | – | – | inconclusive: 6.51 µM [falling, single point] |
| COc1ccccc1C(=O)Nc1nc2cc3c(cc2s1)OCCO3 | inconclusive: -18% | – | – |
| O=C(O)CCc1nc2ccccc2n(CCc2ccccc2)c1=O | inconclusive: 25.4% | – | – |
| Cn1cc(S(=O)(=O)NC2CCCC2)c(=O)n(C)c1=O | inconclusive: -18.9% | – | – |
| Cc1ccc(S(=O)(=O)NCC2CCC(C(=O)NCc3cccnc3)CC2)cc1 (stereo not given) | inconclusive: -8.24% | – | – |

5 compounds already listed, sorted by formula weight, rising.

| Structure (SMILES) | lipid storage change, negative = inhibition | outcome | Potency |
| --- | --- | --- | --- |
| CCCn1c(=S)[nH]c2ccccc2c1=O | inconclusive: 128% | – | – |
| CC(C)CCN(C)C1CCN(C(=O)Nc2c(F)cccc2F)CC1 | inconclusive: 13.6% | – | – |
| Cc1ccc(S(=O)(=O)N2CCN(C(=O)c3cccs3)CC2)cc1 | inconclusive: -16.6% | – | – |
| O=C(Oc1ccc(-c2nnco2)cc1)c1ccc(F)c(S(=O)(=O)N2CCOCC2)c1 | inconclusive: 28.1% | – | – |
| Cc1c(NS(=O)(=O)c2ccc(NCC3CCCO3)c([N+](=O)[O-])c2)c(=O)n(-c2ccccc2)n1C (stereo not given) | inconclusive: 16.7% | – | – |

Next part:

| Structure (SMILES) | lipid storage change, negative = inhibition | outcome | Potency |
| --- | --- | --- | --- |
| Cc1cc(C)nc(N2CCCC(C(=O)NCCc3ccccc3F)C2)n1 (stereo not given) | inconclusive: 20.4% | – | – |
| Cn1c(SCC(=O)N2CCOCC2)nnc1-c1cnccn1 | – | – | inconclusive: 25.9 µM [cytotoxic, partial curve, poor fit] |
| CC(NC(=O)COc1ccccc1)C(c1ccccc1)N1CCN(C)CC1 (stereo not given) | inconclusive: 81.4% | – | – |
| COc1ccccc1/C=C1\SC(=O)N(CCC(=O)N2CCCCC2CCO)C1=O (stereo not given) | inconclusive: -100% | – | – |
| CC(=O)Nc1ccc(OCC(=O)NC(C)c2ccc(F)cc2)cc1 (stereo not given) | inconclusive: 6.29% | – | – |
| CCOC(=O)CSc1nc(=O)n2ccccc2n1 | inactive: -14.6% | – | – |
| CC1CN(c2ccccc2)NC1=O (stereo not given) | inconclusive: 0.0388% | – | – |
| CC(C)N1CCC2(CC1)C(C#N)=C(N)NC(S)=C2C#N | – | – | inconclusive: 18.4 µM [falling, single point] |
| O=C(C1=COCCO1)N1CCN(S(=O)(=O)c2cccc(F)c2)CC1 | inconclusive: 15.4% | – | – |
| CSc1nsc(NC(=O)OCc2ccc(Cl)cc2)n1 | – | – | inconclusive: 1.46 µM [falling, full curve] |
| CCOc1ccc(C2C(C(=O)c3ccc(C)o3)=C(O)C(=O)N2Cc2cccnc2)cc1 (stereo not given) | – | – | inconclusive: 6.51 µM [falling, partial curve, poor fit] |
| C=CCN(C(=O)CNS(=O)(=O)c1ccccc1)C(C(=O)NCCOC)c1cccnc1 (stereo not given) | – | – | inconclusive: 0.326 µM [falling, partial curve] |
| CCOc1ccccc1NC(=O)C1CCCN(S(=O)(=O)c2ccc3c(c2)C(C)(C)C(=O)N3C)C1 (stereo not given) | inconclusive: -26% | – | – |
| O=C(CSc1nc2ccccc2[nH]1)c1ccco1 | – | – | inconclusive: 29.1 µM [activator, single point] |
| CC1(C)CC(=O)N(CC(=O)N2CCN(c3ncccn3)CC2)c2ccccc2S1(=O)=O | inconclusive: 1.41% | – | – |
| Cc1c(C(=O)O)nnn1-c1ccccc1 | inconclusive: 2.42% | – | – |
| COc1ccc(CC(=O)Nc2nnc(CC(C)C)s2)cc1S(=O)(=O)N1CCOCC1 | inconclusive | – | – |
| O=C(COC(=O)c1ccc(Br)cc1)NC(=O)NCc1ccccc1 | – | – | inconclusive: 20.6 µM [falling, single point] |
| COc1ccc(CCNC(=O)CCN2C(=O)c3cccc4cccc(c34)C2=O)cc1OC | inconclusive: 24.5% | – | – |
| CC(C)(C#N)c1cc(Cn2cncn2)cc(C(C)(C)C#N)c1 | inconclusive: -3.56% | – | – |
| COc1ccc(C)cc1N(CC(=O)Nc1cccc(N(C)S(C)(=O)=O)c1)S(C)(=O)=O | inconclusive: 15.5% | – | – |
| COc1ccc2cc(-c3cc(C(=O)OCC(=O)Nc4c(C)n(C)n(-c5ccccc5)c4=O)c4ccccc4n3)ccc2c1 | inconclusive: -9.04% | – | – |
| Cc1ccc(Nc2nc(NCC3CCCO3)nc(N)c2[N+](=O)[O-])cc1C (stereo not given) | inconclusive: -1.98% | – | – |
| COc1cc(NC(=O)c2cccs2)ccc1NC(=O)Cc1ccccc1 | inconclusive: -100% | – | – |
| COc1ccccc1C(=O)Oc1ccc2c(c1)O/C(=C\c1ccncc1)C2=O | – | – | inconclusive: 23.1 µM [falling, single point] |
| Cc1oc(-c2ccccc2F)nc1CS(=O)(=O)CC(=O)NCc1ccco1 | inconclusive: 51.7% | – | – |
| CCCCCSc1nnc(N)s1 | inconclusive: -1.83% | – | – |

| Structure (SMILES) | lipid storage change, negative = inhibition | outcome | Potency |
| --- | --- | --- | --- |
| O=C(NC1CCN(C(=O)NCc2ccccc2)CC1)c1ccccc1 | – | – | inconclusive: 0.58 µM [activator, single point] |
| COc1ccc(C(=O)NNC2=NCCCCC2)cc1 | inconclusive: -2.87% | – | – |
| COc1ccc(/C=N/NC(=O)C2CC2)c(OC)c1OC | inconclusive: 84.7% | – | – |
| Cc1cc(NC(=S)Nc2cccc3ccccc23)n[nH]1 | inconclusive: -17.9% | – | – |
| CC(=O)NC(CCS(C)(=O)=O)C(=O)Nc1cccc(C)c1 (stereo not given) | inconclusive: 15.5% | – | – |
| Cc1ccccc1NC(=S)NC1(C)CCS(=O)(=O)C1 (stereo not given) | inconclusive: -12.5% | – | – |
| Cc1ccc(CN2CC(C(=O)Nc3ccncc3)CC2=O)cc1 (stereo not given) | – | – | inconclusive: 0.0073 µM [activator, full curve, poor fit] |
| CC(=O)Nc1ccc(S(=O)(=O)NCCc2ccccc2)cc1 | – | inactive [at 46.1 µM] | – |
| CCC(O)c1c(-c2ccccc2)nn(C)c1Cl (stereo not given) | inconclusive: 23% | – | – |
| Cc1[nH]c2ccccc2c1/C=N/Nc1nncn1N | – | – | inconclusive: 29.1 µM [cytotoxic, single point] |
| COc1ccc(CCNC(=O)[C@@H](NC(N)=O)C(C)C)cc1 | – | – | inconclusive: 14.6 µM [falling, partial curve, poor fit] |
| CCOC(=O)N1CCN(C(=O)c2oc3ccc(S(=O)(=O)N4CCCCCC4)cc3c2C)CC1 | inconclusive: 46.8% | – | – |
| CNC(=O)C(=O)NCC1OCCN1S(=O)(=O)c1ccc2c(c1)OCCO2 (stereo not given) | inconclusive: 11.4% | – | – |
| Cc1ccc(NC2CCCN(C(=O)c3cnc4ccccn4c3=O)C2)cc1C (stereo not given) | inactive: -4% | – | – |
| O=C(NCc1ccc(Cl)cc1)c1cccc(NC2=NC3CS(=O)(=O)CC3S2)c1 (stereo not given) | inconclusive: 18.1% | – | – |
| CN(CC(=O)Nc1ccc(S(N)(=O)=O)cc1)C1CCCCC1 | inconclusive: 107% | – | – |
| O=C(Nc1ccon1)c1cccc(S(=O)(=O)N2CCCC2)c1 | inconclusive: 7.75% | – | – |
| CCN1CCN(C(=O)C(C)Nc2ccc(OC)cc2OC)CC1 (stereo not given) | inconclusive: 12.6% | – | – |
| Cc1cc(C(=O)OCC(=O)NCc2ccc(Cl)cc2Cl)c(C)o1 | inconclusive: 7.4% | – | – |
| Cc1nc(-c2ccc(S(=O)(=O)N3CCN(C4c5ccccc5-c5ccccc54)CC3)s2)cs1 | inconclusive: -4.3% | – | – |
| Cc1ccc2nc3c(cc(C(=O)NCCCn4ccnc4)n3C)c(=O)n2c1 | inconclusive: 0.584% | – | – |
| O=C(Cc1ccc(F)cc1)N1CCC2(CC1)NCCc1[nH]cnc12 | inconclusive: 32.7% | – | – |
| Cc1ccc(C)c(NC(=O)C2CCCN(S(=O)(=O)c3ccc4[nH]c(=O)ccc4c3)C2)c1 (stereo not given) | inconclusive: 45.9% | – | – |
| Cn1c(=O)c2c(nc(SCC(=O)Nc3ccccc3N3CCCCC3)n2C)n(C)c1=O | – | – | inconclusive: 0.103 µM [activator, full curve, poor fit] |
| COc1ccc(C)cc1NC(=O)C1CCN(C(=O)c2ccc(C(C)(C)C)cc2)CC1 | inconclusive: 39.4% | – | – |
| CC1(C)CC(=O)C2=C(C1)Nc1ccccc1N=C2 | – | – | inconclusive: 29.1 µM [falling, single point] |
